Measured values reported in patent US20080200492A1, “METHODS FOR THE TREATMENT OF ALCOHOL ABUSE, ADDICTION AND DEPENDENCY” (priority 2006, published 2008).

Test system: alcohol preferring rats
Assay: Alcohol Preferring Rats, Study B: Post-Deprivation Effect
Type: in vivo, rat
Conditions: 45 min before re-exposure to alcohol after 72 hours deprivation
Description: Adult male selectively-bred alcohol preferring rats were used in this study. The selectively bred alcohol preferring rats are widely used to study the suppressant effects of compounds on voluntary alcohol intake (Faren et al. 2000; Rezvani et al, 1990, 1991, 1992a, 1992b, 1999, 2000, 2002; 2003; Murphy et al, 1988; Overstreet et al., 1992, 1999; Li and McBride, 1995).
The rats were housed individually under a constant room temperature of 22±1° C. and 12:12 light-dark cycle (7:00-19:00, dark). Animals were fed Agway Prolab Rat/Mouse/Hamster 3000 formula and water ad libitum.
Alcohol intake was determined using a standard two-bottle choice method (Murphy et al. 1988; McBride et al. 1990; Rezvani et al. 1990, 1991, 1993, 1995, 1997, Rezvani et al., 2007a,b; Rezvani and Grady, 1994). Animals were first given free access to water in a graduated Richter tube for 1 day. Next, they were given access to only a solution of 10% (v/v) ethanol for 3 consecutive days. During this period the animals became accustomed to drinking from Richter tubes and to the taste and pharmacological effects of alcohol. Thereafter, the animals were given free access to both water and a solution of 10% alcohol for 4 consecutive weeks and throughout of the study. The animals continued to have free access to food. Water and alcohol intake were recorded at 6 and 24 hour.
Following Study A, the rats were maintained on alcohol for 15 days without drug. On day 16 post-gavage, rats were put on food and water only for 72 hours. On the next day, 45 min before re-exposure to alcohol, the rats were treated with vehicle (0.5% methylcellulose), naltrexone (at 20 mg/kg) or compound of formula (I-A) (at 30-mg/kg). Alcohol intake was then measured at 1, 3, 6 and 24 hr after exposure.
The results are presented as a means. Alcohol intake (g/kg) was calculated by multiplying the volume of alcohol consumed in ml by 10% and 0.7893 (ethanol density)/body weight in kg. Alcohol preference, expressed as percentage was calculated as (volume of alcohol consumed in ml/total fluid intake in ml)×100 (Rezvani and Grady, 1994; Rezvani et al., 2007a). Statistical differences between drug-treated and control groups was determined by using ANOVA and Tukey Student's t test for multiple comparison.
The results from Study B provide a measure of the effectiveness of the test compound to suppress post-deprivation-induced craving for alcohol.

| Structure (SMILES) | Water (30 mg/kg, 1 Hour Post Dosing) | Water (30 mg/kg, 3 Hours Post Dosing) | Water (30 mg/kg, 6 Hours Post Dosing) | Water (30 mg/kg, 24 Hours Post Dosing) | Water (20 mg/kg, 1 Hour Post Dosing) | Water (20 mg/kg, 3 Hours Post Dosing) | Water (20 mg/kg, 6 Hours Post Dosing) | Water (20 mg/kg, 24 Hours Post Dosing) |
| --- | --- | --- | --- | --- | --- | --- | --- | --- |
| Cc1cccc2cccc(CN3CCC4(CC3)C(=O)N(C[C@H](O)CN)CN4c3ccc(F)cc3)c12 [Cmpd (I-A), 3-(3-amino-2-(R)-hydroxy-propyl)-1-(4-fluoro-phenyl)-8-(8-methyl-naphthalen-1-ylmethyl)-1,3,8-triazaspiro[4.5]decan-4-one] | 0.85 g/kg | 3.88 g/kg | 5.78 g/kg | 14.67 g/kg | – | – | – | – |
| O=C1CC[C@@]2(O)[C@H]3Cc4ccc(O)c5c4[C@@]2(CCN3CC2CC2)[C@H]1O5 [Naltrexone, naltrexone, reference compound] | – | – | – | – | 0.26 g/kg | 0.88 g/kg | 4.12 g/kg | 12.26 g/kg |
